Residue numbers refer to the chain shown, from its start. No constants are given. Whether binding was seen depends on the method and setting. Binding seen in cells or lysates may run through a third protein. Some results given as binding are weak or reduced against the parent protein; the word gives no strength.
Legend:
[1] = target: T1, SFB-MARCH5 2KR (UniProt Q9NX47); experiment: condition: only cells expressing catalytically inactive TFAM-FokI MT (no mtDSBs, DNA-PKcs not activated); pull-down; as a1, but cells cotransfected with catalytically inactive TFAM-FokI MT (no mtDSBs); SFB-MARCH5 captured on Streptavidin-Sepharose, NETN buffer, 1 h at 4 °C; Western blot
T1 sequence: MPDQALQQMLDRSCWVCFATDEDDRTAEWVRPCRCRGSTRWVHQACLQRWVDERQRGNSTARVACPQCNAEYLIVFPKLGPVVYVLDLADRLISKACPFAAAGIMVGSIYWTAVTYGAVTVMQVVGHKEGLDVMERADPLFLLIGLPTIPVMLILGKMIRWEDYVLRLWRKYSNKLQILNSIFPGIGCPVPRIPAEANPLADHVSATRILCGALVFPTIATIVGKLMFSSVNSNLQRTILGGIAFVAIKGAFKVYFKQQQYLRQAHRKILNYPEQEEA

Protein sequences, listed by entry. Tags and fused reporters are not part of them.
UniProt P78527: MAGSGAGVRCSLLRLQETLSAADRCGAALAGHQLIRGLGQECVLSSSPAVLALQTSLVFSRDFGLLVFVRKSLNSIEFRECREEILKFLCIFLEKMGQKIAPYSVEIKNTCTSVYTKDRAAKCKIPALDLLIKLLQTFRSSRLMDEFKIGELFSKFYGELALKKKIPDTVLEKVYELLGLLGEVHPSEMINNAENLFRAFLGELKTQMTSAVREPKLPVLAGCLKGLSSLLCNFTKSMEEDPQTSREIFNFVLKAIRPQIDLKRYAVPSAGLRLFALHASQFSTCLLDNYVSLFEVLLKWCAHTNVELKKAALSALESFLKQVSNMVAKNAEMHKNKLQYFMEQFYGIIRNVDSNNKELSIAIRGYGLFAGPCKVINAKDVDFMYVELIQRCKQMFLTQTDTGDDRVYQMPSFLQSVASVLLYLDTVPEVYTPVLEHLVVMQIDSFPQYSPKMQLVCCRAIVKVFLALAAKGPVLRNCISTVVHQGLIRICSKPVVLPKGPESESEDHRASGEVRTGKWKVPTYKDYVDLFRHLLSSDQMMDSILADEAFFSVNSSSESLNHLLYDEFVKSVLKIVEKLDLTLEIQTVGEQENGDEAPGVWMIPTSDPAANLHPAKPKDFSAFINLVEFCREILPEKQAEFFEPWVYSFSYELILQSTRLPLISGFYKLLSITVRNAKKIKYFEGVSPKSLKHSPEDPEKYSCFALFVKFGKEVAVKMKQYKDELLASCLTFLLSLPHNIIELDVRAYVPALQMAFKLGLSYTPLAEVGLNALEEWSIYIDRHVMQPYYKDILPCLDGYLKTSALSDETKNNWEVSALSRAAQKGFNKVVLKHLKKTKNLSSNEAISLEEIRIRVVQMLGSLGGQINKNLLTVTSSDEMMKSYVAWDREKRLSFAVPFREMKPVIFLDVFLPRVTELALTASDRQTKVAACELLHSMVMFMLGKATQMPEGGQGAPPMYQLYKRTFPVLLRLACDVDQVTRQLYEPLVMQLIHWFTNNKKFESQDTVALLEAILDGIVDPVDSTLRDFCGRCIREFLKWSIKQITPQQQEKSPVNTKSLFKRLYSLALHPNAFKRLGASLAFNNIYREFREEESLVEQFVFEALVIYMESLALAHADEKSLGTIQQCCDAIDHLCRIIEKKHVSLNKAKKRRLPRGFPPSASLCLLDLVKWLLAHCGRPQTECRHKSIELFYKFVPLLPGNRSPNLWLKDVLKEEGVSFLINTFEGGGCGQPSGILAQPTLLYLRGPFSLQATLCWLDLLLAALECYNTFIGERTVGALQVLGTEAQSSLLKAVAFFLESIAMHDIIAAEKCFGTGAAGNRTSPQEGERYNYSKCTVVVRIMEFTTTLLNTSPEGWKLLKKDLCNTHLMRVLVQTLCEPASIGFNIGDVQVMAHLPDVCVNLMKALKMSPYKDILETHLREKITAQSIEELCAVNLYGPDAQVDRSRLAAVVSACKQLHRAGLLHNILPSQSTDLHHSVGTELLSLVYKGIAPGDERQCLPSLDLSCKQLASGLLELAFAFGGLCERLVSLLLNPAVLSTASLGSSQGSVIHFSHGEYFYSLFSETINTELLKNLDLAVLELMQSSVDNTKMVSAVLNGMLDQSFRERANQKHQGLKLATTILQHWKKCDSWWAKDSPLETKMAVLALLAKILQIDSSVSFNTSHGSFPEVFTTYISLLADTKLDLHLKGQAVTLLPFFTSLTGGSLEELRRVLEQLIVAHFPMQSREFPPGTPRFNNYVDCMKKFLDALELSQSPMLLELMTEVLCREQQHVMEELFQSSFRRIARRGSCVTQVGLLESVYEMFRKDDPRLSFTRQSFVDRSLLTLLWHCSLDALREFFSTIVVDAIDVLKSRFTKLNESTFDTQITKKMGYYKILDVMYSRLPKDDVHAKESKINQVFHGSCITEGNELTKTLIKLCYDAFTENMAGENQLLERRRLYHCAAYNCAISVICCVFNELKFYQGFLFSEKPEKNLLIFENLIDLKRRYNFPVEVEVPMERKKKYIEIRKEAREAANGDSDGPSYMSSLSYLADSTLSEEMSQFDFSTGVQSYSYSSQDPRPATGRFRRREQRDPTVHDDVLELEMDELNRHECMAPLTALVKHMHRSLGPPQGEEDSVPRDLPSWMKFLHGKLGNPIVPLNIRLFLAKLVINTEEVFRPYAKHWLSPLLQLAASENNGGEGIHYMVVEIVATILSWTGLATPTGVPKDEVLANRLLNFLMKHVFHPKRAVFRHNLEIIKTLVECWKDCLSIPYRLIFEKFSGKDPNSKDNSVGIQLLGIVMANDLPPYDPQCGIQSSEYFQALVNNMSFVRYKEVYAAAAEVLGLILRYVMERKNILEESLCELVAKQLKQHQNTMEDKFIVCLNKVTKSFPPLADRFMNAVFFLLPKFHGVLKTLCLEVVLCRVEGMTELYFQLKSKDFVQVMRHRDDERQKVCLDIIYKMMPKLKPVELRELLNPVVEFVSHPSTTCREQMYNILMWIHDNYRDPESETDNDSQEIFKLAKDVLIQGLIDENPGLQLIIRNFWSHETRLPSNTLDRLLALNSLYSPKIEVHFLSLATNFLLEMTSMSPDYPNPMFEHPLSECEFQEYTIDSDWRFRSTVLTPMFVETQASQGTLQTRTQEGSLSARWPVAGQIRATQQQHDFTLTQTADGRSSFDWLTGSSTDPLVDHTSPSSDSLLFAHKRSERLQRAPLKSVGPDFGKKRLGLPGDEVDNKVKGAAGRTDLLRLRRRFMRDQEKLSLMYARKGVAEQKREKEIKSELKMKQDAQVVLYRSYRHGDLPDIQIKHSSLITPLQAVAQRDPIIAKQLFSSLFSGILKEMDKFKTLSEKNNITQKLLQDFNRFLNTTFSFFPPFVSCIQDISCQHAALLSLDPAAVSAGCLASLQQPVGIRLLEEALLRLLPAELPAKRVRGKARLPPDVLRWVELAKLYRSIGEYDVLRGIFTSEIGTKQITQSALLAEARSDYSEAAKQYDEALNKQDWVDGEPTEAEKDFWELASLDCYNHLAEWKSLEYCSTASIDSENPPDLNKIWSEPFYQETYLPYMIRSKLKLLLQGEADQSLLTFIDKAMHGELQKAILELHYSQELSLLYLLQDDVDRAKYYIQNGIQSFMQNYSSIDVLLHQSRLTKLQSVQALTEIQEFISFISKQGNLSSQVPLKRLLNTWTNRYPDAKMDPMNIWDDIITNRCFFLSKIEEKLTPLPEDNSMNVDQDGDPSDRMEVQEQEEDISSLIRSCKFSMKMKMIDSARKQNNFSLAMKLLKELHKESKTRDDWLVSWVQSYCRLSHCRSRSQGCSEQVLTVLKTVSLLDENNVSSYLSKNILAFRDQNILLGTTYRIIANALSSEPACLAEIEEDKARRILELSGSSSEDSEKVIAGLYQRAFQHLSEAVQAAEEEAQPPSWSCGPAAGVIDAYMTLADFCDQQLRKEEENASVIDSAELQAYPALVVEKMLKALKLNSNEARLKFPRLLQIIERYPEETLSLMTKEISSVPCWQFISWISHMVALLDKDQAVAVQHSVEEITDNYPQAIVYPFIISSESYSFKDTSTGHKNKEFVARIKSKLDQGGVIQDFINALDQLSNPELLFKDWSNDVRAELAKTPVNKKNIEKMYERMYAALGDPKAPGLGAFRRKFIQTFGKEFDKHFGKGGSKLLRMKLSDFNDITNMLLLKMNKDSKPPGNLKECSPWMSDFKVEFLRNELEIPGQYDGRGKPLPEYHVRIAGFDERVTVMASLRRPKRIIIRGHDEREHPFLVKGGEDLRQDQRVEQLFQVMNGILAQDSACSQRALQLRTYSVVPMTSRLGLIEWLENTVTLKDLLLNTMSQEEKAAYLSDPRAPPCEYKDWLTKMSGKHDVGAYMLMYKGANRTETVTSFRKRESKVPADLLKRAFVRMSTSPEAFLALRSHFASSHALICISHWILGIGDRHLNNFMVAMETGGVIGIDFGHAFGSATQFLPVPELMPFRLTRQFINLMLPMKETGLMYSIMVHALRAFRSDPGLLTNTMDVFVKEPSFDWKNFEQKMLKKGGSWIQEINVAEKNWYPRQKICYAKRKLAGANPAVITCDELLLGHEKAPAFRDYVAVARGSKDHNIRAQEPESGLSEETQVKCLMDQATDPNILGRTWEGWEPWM

[2] = target: T2, SFB-MARCH5 HW (UniProt Q9NX47); experiment: as above
T2 sequence: T1 sequence with R40K, H43W, R54K

[3] = target: T1, SFB-MARCH5 2KR; experiment: pull-down; SFB-MARCH5 captured on Streptavidin-Sepharose from lysates of HEK293T cells cotransfected with TFAM-FokI WT (mtDSBs induced), harvested 36 h later; MG132 cotreatment for SFB-MARCH5 2KR; NETN buffer (50 mM Tris-HCl pH 8.0, 150 mM NaCl, 0.5% NP-40, 5 mM EDTA), 1 h at 4 °C; Western blot
[4] = target: T2, SFB-MARCH5 HW; experiment: as above

For “DNA-dependent protein kinase, catalytic subunit (DNA-PKcs) (from UniProt P78527 1-4128) (enzyme)”, the binding [1] was “no binding”, the binding [2] was “no binding” and the binding [3] was “binds”. The binding [4] was “binds”.

Reference: article PMC10692114
